In the supplement of paper PMC4604168 (melanoma cell lines):
The other results are listed elsewhere or left out. Repeats are few or missing, and single values can be far off.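 The apoptosis fraction was the count of cleaved-PARP antibody-stained nuclei relative to all DNA-stained nuclei, imaged in 1,536-well plates. Screening doses were set so most cells survived, and baseline and induced cleaved-PARP levels vary greatly across cell lines.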

Columns and labels:
Assay in all cases: cleaved PARP positive nuclei fraction relative to DMSO control; melanoma cells; higher = more apoptosis
Settings in all cases: library dose: low library concentration; 72 h
CBRC034 = test system: CBRC034 (line from a melanoma biopsy)
COLO792 = test system: COLO792
COLO800 = test system: COLO800
COLO829 = test system: COLO829
G361 = test system: G361
IPC-298 = test system: IPC-298
IST-MEL1 = test system: IST-MEL1
LB2518-MEL = test system: LB2518-MEL
LOXIMVI = test system: LOXIMVI
MEL-HO = test system: MEL-HO

Row | SMILES | cleaved PARP positive nuclei fraction (CBRC034) | cleaved PARP positive nuclei fraction (COLO792) | cleaved PARP positive nuclei fraction (COLO800) | cleaved PARP positive nuclei fraction (COLO829) | cleaved PARP positive nuclei fraction (G361) | cleaved PARP positive nuclei fraction (IPC-298) | cleaved PARP positive nuclei fraction (IST-MEL1) | cleaved PARP positive nuclei fraction (LB2518-MEL) | cleaved PARP positive nuclei fraction (LOXIMVI) | cleaved PARP positive nuclei fraction (MEL-HO)
1 | Cn1sc(=O)n(Cc2ccccc2)c1=O + O=C(O)c1ccc2c(c1)nc(Nc1cccc(Cl)c1)c1ccncc12 [CX4945] (first compound 0.4 µM, partner dose 0.4 µM) | 103% | 63.3% | 119% | 61% | 153% | 88.6% | 47.2% | 111% | 40.8% | 130%
2 | C[C@]1(O)C[C@@H](c2nc(-c3ccc4ccc(-c5ccccc5)nc4c3)c3c(N)nccn32)C1 + CC(=O)O[C@@]12CO[C@@H]1C[C@H](O)[C@@]1(C)C(=O)[C@H](O)C3=C(C)[C@@H](OC(=O)[C@H](O)[C@@H](NC(=O)OC(C)(C)C)c4ccccc4)C[C@@](O)([C@@H](OC(=O)c4ccccc4)[C@H]21)C3(C)C [Docetaxel] (first compound 0.4 µM, partner dose 0.0001 µM) | 173% | 204% | 478% | 188% | 684% | 291% | 209% | 414% | 145% | 311%
3 | CC(=O)O[C@@]12CO[C@@H]1C[C@H](O)[C@@]1(C)C(=O)[C@H](O)C3=C(C)[C@@H](OC(=O)[C@H](O)[C@@H](NC(=O)OC(C)(C)C)c4ccccc4)C[C@@](O)([C@@H](OC(=O)c4ccccc4)[C@H]21)C3(C)C [Docetaxel] + Nc1ccn([C@@H]2O[C@H](CO)[C@@H](O)C2(F)F)c(=O)n1 [gemcitabine] (first compound 0.0001 µM, partner dose 0.0004 µM) | 70.3% | 579% | 146% | 269% | 569% | 293% | 132% | 329% | 97.6% | 131%
4 | Cn1cnc2c(F)c(Nc3ccc(Br)cc3Cl)c(C(=O)NOCCO)cc21 [selumetinib] + C[C@@H](Oc1cc(-c2cnn(C3CCNCC3)c2)cnc1N)c1c(Cl)ccc(F)c1Cl [Crizotinib] (first compound 0.015 µM, partner dose 0.2 µM) | 115% | 124% | 50.4% | 171% | 94.9% | 61.5% | 71% | 149% | 111% | 273%
5 | CS(=O)(=O)c1ccc(C(=O)Nc2ccc(Cl)c(-c3ccccn3)c2)c(Cl)c1 [vismodegib] + CCN(CC)CCNC(=O)c1c(C)[nH]c(/C=C2\C(=O)Nc3ccc(F)cc32)c1C [sunitinib] (first compound 1 µM, partner dose 0.4 µM) | 32.6% | 33.3% | 119% | 112% | 85.3% | 140% | 91.3% | 93.9% | 38.2% | 107%
6 | Cn1sc(=O)n(Cc2ccccc2)c1=O + CN(c1ncccc1CNc1nc(Nc2ccc3c(c2)CC(=O)N3)ncc1C(F)(F)F)S(C)(=O)=O [PF562271] (first compound 0.4 µM, partner dose 0.08 µM) | 40.2% | 104% | 63.9% | 113% | 112% | 123% | 29.7% | 105% | 185% | 244%
7 | CCCCCCCCc1ccc(CCC(N)(CO)CO)cc1 [fingolimod] + CCCS(=O)(=O)Nc1ccc(F)c(C(=O)c2c[nH]c3ncc(Cl)cc23)c1F [PLX4720] (first compound 2 µM, partner dose 0.08 µM) | 46.8% | 65.8% | 100% | 86.1% | 241% | 96.1% | 31.6% | 193% | 110% | 93.9%
8 | COc1ccc(C2=N[C@@H](c3ccc(Cl)cc3)[C@@H](c3ccc(Cl)cc3)N2C(=O)N2CCNC(=O)C2)c(OC(C)C)c1 [Nutlin-3] + Nc1cccc2c1CN(C1CCC(=O)NC1=O)C2=O [lenalidomide] (first compound 0.1 µM, partner dose 1 µM) | 152% | 94.4% | 143% | 86.9% | 147% | 41.2% | 97.9% | 119% | 83.1% | 117%
9 | CN(c1ncccc1CNc1nc(Nc2ccc3c(c2)CC(=O)N3)ncc1C(F)(F)F)S(C)(=O)=O + Cc1cc(Nc2cc(N3CCN(C)CC3)nc(/C=C/c3ccccc3)n2)n[nH]1 [ENMD2076] (first compound 0.08 µM, partner dose 0.04 µM) | 242% | 186% | 227% | 177% | 109% | 117% | 92.3% | 96.4% | 65.4% | 123%

Shown as tab-separated lines: entries from further up.
Row	SMILES	cleaved PARP positive nuclei fraction (CBRC034)	cleaved PARP positive nuclei fraction (COLO792)	cleaved PARP positive nuclei fraction (COLO800)	cleaved PARP positive nuclei fraction (COLO829)	cleaved PARP positive nuclei fraction (G361)	cleaved PARP positive nuclei fraction (IPC-298)	cleaved PARP positive nuclei fraction (IST-MEL1)	cleaved PARP positive nuclei fraction (LB2518-MEL)	cleaved PARP positive nuclei fraction (LOXIMVI)	cleaved PARP positive nuclei fraction (MEL-HO)
3	CC(=O)O[C@@]12CO[C@@H]1C[C@H](O)[C@@]1(C)C(=O)[C@H](O)C3=C(C)[C@@H](OC(=O)[C@H](O)[C@@H](NC(=O)OC(C)(C)C)c4ccccc4)C[C@@](O)([C@@H](OC(=O)c4ccccc4)[C@H]21)C3(C)C [Docetaxel] + Nc1ccn([C@@H]2O[C@H](CO)[C@@H](O)C2(F)F)c(=O)n1 [gemcitabine] (first compound 0.0001 µM, partner dose 0.0004 µM)	70.3%	579%	146%	269%	569%	293%	132%	329%	97.6%	131%
5	CS(=O)(=O)c1ccc(C(=O)Nc2ccc(Cl)c(-c3ccccn3)c2)c(Cl)c1 [vismodegib] + CCN(CC)CCNC(=O)c1c(C)[nH]c(/C=C2\C(=O)Nc3ccc(F)cc32)c1C [sunitinib] (first compound 1 µM, partner dose 0.4 µM)	32.6%	33.3%	119%	112%	85.3%	140%	91.3%	93.9%	38.2%	107%
